Assay results published in patent US20120040057A1, “CONFECTIONERIES PROVIDING MOUTH-MOISTENING REFRESHMENT” (priority 2009, published 2012).

Test: taste testing of spilanthol level and source in confectionery
Type: in vivo

## C/C=C/C=C\CC/C=C/C(=O)NCC(C)C [spilanthol, N-isobutyl-2E,6Z,8E-decatrienamide]
Amounts above about 60 ppm in the confectionery composition
  taste at high spilanthol amounts: undesirable bitterness, even burning in some formulations
Based on taste testing, vs some comparable plant extracts
  taste profile and tingling compared to plant extracts: cleaner profile and/or less tingling
